Laboratory results reported in publication PMC8172566.
No constants are given. Whether binding was seen depends on the method and setting. In cells and extracts the contact can be indirect. Binding calls can cover weak binding; strength is not graded here. For part of these data: Tags and fused reporters may be left off the sequences shown. Values belong to the molecule of their own block, whether it stands above or below them.

Columns and labels:
[1] = molecular target: T1, Flag-IRF7 (human) (UniProt Q92985); experiment: co-IP; HEK293 cells cotransfected with IRF7, an IKKε isoform and HA-ubiquitin; lysis in IP buffer (150 mM NaCl, 20 mM Tris pH 7.5, 0.1% Triton X-100, 10 mM N-ethylmaleimide); anti-Flag M2 affinity beads, 4 °C, 2 h; blot with anti-V5
T1 sequence: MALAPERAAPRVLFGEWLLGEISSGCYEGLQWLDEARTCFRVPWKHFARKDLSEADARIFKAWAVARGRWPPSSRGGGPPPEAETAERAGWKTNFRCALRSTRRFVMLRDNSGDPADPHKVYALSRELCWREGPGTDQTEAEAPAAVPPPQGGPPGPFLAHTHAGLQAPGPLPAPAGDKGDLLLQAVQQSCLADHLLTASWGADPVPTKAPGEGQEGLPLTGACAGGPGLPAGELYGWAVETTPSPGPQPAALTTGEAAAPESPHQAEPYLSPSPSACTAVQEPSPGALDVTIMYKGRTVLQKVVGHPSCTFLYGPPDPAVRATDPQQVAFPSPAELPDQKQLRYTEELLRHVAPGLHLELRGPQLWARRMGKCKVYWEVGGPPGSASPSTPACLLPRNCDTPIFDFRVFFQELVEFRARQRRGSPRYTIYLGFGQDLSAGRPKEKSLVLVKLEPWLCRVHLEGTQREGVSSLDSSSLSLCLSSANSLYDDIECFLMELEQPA

[2] = molecular target: Flag-IKKε isoform 2 (IKKε v2) (human); experiment: as above
[3] = molecular target: Flag-IKKε isoform 2 (IKKε v2) (human); experiment: co-IP; RD cells cotransfected with each Flag-IKKε isoform and HA-ubi; anti-Flag beads; endogenous IRF7 detected by anti-IRF7 antibody

binding [1]: binds
Molecule: V5-IKKε isoform 2 (IKKε v2) (human) (enzyme)

binding [2]: binds
B1: V5-IRF7 (protein, UniProt Q92985 1-503)
chain: MALAPERAAPRVLFGEWLLGEISSGCYEGLQWLDEARTCFRVPWKHFARKDLSEADARIFKAWAVARGRWPPSSRGGGPPPEAETAERAGWKTNFRCALRSTRRFVMLRDNSGDPADPHKVYALSRELCWREGPGTDQTEAEAPAAVPPPQGGPPGPFLAHTHAGLQAPGPLPAPAGDKGDLLLQAVQQSCLADHLLTASWGADPVPTKAPGEGQEGLPLTGACAGGPGLPAGELYGWAVETTPSPGPQPAALTTGEAAAPESPHQAEPYLSPSPSACTAVQEPSPGALDVTIMYKGRTVLQKVVGHPSCTFLYGPPDPAVRATDPQQVAFPSPAELPDQKQLRYTEELLRHVAPGLHLELRGPQLWARRMGKCKVYWEVGGPPGSASPSTPACLLPRNCDTPIFDFRVFFQELVEFRARQRRGSPRYTIYLGFGQDLSAGRPKEKSLVLVKLEPWLCRVHLEGTQREGVSSLDSSSLSLCLSSANSLYDDIECFLMELEQPA

binding [3]: binds
B2: endogenous IRF7 (protein, UniProt Q92985 1-503)
chain: MALAPERAAPRVLFGEWLLGEISSGCYEGLQWLDEARTCFRVPWKHFARKDLSEADARIFKAWAVARGRWPPSSRGGGPPPEAETAERAGWKTNFRCALRSTRRFVMLRDNSGDPADPHKVYALSRELCWREGPGTDQTEAEAPAAVPPPQGGPPGPFLAHTHAGLQAPGPLPAPAGDKGDLLLQAVQQSCLADHLLTASWGADPVPTKAPGEGQEGLPLTGACAGGPGLPAGELYGWAVETTPSPGPQPAALTTGEAAAPESPHQAEPYLSPSPSACTAVQEPSPGALDVTIMYKGRTVLQKVVGHPSCTFLYGPPDPAVRATDPQQVAFPSPAELPDQKQLRYTEELLRHVAPGLHLELRGPQLWARRMGKCKVYWEVGGPPGSASPSTPACLLPRNCDTPIFDFRVFFQELVEFRARQRRGSPRYTIYLGFGQDLSAGRPKEKSLVLVKLEPWLCRVHLEGTQREGVSSLDSSSLSLCLSSANSLYDDIECFLMELEQPA
